Experimental findings from article PMC5392496 are described below.

Chains of the proteins cited; added tags and fusions are not shown.
UniProt P22700: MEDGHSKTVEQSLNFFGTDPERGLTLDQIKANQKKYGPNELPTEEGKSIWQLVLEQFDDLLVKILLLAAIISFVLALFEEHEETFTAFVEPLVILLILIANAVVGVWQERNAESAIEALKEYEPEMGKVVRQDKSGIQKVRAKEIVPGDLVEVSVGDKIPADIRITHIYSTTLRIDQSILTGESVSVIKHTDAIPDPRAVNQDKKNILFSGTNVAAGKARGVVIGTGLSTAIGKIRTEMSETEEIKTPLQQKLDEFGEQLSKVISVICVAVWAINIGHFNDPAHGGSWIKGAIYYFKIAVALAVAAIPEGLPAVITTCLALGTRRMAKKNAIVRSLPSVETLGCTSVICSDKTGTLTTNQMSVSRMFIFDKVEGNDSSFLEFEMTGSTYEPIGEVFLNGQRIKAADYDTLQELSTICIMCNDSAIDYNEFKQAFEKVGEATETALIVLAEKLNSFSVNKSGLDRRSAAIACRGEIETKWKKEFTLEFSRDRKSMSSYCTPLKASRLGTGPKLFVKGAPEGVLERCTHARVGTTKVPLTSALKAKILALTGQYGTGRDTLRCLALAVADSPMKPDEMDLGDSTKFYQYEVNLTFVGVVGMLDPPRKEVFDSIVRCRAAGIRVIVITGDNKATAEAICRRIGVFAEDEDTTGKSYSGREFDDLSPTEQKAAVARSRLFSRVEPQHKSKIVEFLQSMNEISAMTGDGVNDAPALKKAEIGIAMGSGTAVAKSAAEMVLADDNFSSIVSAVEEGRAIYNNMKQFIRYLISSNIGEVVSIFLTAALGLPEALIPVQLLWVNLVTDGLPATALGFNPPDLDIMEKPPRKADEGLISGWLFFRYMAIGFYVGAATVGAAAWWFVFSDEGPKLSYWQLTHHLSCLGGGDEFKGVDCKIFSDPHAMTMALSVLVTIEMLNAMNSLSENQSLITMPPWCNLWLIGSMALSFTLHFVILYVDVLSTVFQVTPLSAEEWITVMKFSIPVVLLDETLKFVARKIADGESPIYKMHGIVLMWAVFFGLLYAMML
UniProt Q9VWB9: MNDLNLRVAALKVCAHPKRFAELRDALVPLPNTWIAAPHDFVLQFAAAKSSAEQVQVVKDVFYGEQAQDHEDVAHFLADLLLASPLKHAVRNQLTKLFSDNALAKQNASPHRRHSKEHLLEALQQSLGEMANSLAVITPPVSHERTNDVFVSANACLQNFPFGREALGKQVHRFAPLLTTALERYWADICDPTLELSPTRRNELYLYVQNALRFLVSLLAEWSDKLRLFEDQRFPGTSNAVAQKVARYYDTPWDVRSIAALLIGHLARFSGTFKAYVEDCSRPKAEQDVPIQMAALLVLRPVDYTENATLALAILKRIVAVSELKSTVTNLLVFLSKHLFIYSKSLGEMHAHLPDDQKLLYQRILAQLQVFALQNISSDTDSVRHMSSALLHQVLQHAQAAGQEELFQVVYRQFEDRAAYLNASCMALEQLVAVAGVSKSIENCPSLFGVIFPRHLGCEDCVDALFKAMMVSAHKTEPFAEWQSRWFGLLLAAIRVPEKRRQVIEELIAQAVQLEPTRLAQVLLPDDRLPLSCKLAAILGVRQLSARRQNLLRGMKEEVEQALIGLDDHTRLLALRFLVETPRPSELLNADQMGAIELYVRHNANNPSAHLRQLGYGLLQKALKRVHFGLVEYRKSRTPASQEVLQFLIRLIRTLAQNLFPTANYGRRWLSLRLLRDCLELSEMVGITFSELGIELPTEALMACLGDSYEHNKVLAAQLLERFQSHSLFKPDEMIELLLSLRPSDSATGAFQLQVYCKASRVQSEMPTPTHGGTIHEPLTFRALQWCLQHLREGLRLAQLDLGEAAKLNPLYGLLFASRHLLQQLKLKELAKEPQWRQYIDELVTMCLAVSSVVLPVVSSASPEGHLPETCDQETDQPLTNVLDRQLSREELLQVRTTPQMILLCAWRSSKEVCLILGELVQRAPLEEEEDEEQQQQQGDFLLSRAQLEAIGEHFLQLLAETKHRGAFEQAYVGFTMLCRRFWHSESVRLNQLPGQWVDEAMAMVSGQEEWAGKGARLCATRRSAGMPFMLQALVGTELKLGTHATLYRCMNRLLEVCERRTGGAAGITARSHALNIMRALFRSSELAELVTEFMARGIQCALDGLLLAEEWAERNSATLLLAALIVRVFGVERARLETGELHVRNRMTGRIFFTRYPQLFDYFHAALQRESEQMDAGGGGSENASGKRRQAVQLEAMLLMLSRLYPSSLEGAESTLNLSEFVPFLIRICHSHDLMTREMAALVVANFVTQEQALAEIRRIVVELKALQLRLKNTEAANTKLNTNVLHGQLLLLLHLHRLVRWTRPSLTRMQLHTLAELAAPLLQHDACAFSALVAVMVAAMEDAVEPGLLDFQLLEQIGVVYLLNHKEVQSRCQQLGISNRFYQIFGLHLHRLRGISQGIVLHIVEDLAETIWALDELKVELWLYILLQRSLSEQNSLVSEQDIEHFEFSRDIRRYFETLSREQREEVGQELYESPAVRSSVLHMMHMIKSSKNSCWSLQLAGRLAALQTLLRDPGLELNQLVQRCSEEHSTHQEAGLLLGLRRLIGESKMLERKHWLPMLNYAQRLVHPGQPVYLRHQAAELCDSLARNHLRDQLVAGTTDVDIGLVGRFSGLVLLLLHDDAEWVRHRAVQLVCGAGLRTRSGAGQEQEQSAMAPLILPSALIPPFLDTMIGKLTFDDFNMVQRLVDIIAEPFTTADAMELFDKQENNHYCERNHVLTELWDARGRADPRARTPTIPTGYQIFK

Experiment [1] concerns the target FLAG-SERCA (Drosophila melanogaster) (UniProt P22700). Nature of the experiment: co-IP; FLAG-SERCA immunoprecipitates from transfected Kc167 cells, immunoblotted for endogenous THADA; IP lysis buffer 50 mM Tris pH 7.5, 1% Triton-X, 150 mM NaCl; 4°C; protein A beads. For orientation: In western blotting, separated proteins are transferred to a membrane and probed.
Experiment [2] concerns the target Drosophila THADA (CG15618) (Drosophila melanogaster (endogenous in flies and Kc167 cells)) (UniProt Q9VWB9). Nature of the experiment: co-IP; immunoprecipitation of endogenous THADA from lysates of transgenic adult flies expressing FLAG-SERCA; IP lysis buffer 50 mM Tris pH 7.5, 1% Triton-X, 150 mM NaCl; 4°C; protein A beads; Western blot.
The target is the same in experiment [3]. Nature of the experiment: co-IP; immunoprecipitation of endogenous THADA from Kc167 lysates, blotted for FLAG-SERCA; lysates from THADA knockdown cells as negative control; IP lysis buffer 50 mM Tris pH 7.5, 1% Triton-X, 150 mM NaCl; 4°C; protein A beads.

No constants are given. Whether binding was seen depends on the method and setting. In cells and extracts the contact can be indirect. Some entries that bind do so weakly or less than the wild type.

Consider “Drosophila THADA (CG15618) (from UniProt Q9VWB9 1-1746)”, for which, in experiment [1], the binding entry is on record as “binds”. As to FLAG-SERCA (from UniProt P22700 1-1020), the binding result in experiment [2] and in experiment [3] was “binds” in each case.
